The results in this text go back to publication PMC7045432.

Sequences of proteins named here, by UniProt entry; tags and fusion partners are left off.
UniProt Q6P6C2: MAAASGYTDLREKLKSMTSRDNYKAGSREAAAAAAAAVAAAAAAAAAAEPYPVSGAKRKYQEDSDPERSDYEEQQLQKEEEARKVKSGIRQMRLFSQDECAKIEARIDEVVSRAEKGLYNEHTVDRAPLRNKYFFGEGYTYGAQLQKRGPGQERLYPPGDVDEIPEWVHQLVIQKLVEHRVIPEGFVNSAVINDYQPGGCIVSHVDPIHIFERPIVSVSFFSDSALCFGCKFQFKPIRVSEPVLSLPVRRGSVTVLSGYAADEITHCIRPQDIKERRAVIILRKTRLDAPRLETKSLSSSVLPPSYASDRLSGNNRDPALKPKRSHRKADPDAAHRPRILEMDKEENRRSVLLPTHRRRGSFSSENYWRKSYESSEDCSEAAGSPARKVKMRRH
UniProt Q14152: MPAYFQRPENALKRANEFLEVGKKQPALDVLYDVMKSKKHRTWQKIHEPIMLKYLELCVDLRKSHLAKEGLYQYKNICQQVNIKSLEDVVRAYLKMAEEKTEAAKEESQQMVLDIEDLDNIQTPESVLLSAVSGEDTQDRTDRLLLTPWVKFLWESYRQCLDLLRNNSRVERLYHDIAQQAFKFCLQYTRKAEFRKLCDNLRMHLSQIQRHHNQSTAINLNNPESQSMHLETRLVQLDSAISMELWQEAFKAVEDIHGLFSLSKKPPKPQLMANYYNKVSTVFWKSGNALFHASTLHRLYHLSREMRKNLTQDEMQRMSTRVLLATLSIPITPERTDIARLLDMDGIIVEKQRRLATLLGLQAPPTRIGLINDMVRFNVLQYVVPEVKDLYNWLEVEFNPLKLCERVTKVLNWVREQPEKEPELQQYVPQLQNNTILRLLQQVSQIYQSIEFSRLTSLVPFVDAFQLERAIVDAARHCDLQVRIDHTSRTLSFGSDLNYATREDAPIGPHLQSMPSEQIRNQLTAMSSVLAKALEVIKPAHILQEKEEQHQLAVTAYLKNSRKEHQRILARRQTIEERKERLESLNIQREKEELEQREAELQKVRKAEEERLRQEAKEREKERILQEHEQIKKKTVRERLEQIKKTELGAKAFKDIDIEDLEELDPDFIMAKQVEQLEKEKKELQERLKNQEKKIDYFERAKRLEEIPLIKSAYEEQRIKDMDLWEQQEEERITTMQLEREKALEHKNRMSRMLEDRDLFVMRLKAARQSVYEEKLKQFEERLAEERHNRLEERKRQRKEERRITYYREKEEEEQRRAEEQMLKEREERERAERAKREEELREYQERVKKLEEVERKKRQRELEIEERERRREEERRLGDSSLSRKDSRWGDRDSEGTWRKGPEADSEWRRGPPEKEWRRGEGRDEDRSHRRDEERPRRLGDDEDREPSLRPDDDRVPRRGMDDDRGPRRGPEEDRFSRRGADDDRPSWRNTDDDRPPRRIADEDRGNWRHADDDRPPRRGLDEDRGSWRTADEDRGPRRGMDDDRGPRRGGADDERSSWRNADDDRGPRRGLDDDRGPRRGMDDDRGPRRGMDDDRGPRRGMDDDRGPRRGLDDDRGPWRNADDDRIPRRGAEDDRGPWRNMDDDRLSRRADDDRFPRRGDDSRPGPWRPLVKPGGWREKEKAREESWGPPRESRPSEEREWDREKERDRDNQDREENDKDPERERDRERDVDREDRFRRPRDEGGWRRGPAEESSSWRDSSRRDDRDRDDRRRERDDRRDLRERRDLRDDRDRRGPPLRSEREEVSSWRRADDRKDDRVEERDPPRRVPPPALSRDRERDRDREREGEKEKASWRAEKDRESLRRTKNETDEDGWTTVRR
UniProt Q15717: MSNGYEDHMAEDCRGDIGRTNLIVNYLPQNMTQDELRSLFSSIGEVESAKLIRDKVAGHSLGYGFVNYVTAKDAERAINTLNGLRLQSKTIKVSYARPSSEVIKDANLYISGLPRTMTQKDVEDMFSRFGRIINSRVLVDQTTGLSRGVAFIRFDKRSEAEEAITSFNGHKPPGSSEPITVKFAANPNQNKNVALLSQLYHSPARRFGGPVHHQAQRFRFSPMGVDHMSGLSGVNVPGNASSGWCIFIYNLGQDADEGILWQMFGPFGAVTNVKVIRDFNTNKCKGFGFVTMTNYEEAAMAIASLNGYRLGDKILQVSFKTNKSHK
UniProt Q9BYJ9: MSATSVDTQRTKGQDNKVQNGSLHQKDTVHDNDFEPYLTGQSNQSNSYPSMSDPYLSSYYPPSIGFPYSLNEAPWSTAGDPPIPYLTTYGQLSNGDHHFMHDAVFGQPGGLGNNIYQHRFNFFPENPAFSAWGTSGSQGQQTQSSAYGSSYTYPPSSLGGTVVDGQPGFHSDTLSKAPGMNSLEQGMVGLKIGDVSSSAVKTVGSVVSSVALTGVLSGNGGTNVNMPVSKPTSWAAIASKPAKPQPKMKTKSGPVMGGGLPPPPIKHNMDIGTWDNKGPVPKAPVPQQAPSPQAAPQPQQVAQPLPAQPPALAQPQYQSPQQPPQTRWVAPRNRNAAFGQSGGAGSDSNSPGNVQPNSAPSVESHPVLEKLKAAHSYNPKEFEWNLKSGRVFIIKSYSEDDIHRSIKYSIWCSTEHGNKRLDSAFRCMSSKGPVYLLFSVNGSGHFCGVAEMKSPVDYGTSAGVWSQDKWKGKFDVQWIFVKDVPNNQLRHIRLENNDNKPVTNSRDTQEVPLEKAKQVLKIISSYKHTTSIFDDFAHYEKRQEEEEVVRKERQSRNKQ

No constants are given. Whether binding was seen depends on the method and setting. Binding seen in cells or lysates may run through a third protein. Some results given as binding are weak or reduced against the parent protein; the word gives no strength.

Experiment [1] concerns the target AlkB homolog 5 (ALKBH5) (human (endogenous in A549)) (UniProt Q6P6C2). Description: co-IP; endogenous co-IP from A549 cell lysates, immunoprecipitation with an antibody against either partner, western blot; for YTHDF1/2 with YTHDF3 also in cells transfected with shALKBH5 or ALKBH5 (interaction not affected). For orientation: Immunoblotting shows a protein as a band on a membrane.

Experiment [2] concerns the target Eukaryotic translation initiation factor 3 subunit A (eIF3a) (human (endogenous in A549)) (UniProt Q14152). The description is as above.

For “Human antigen R (HuR) (from UniProt Q15717 1-326)”, the binding result in experiment [1] is “binds”.

On to YTHDF1 (from UniProt Q9BYJ9 1-559), for which the binding entry in experiment [2] was “binds”.
